Values from PubChem BioAssay AID686938 (Drosophila RNAi Screening Center, 2013).
The screen tested about 23,000 reagents; below is an unselected part of those that have a named target and a result. Of all reagents, 75 (0.33%) were called active. 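Raw plate signals without normalisation; calls rest on plate z-scores that were not deposited; ratio present for only 364 wells.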 A number with no mark means an inactive call. Reagent sequences are not shown. The record does not give: the dose of the treatment.

Aim: 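Looking for CRAC channel components and the factors controlling them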 (primary screen)
Cells: Drosophila S2R+ cells
Knock-down reagent: long dsRNA against Drosophila genes, about 0.25 µg dsRNA per well, roughly 10,000 cells
Time to read-out: 5 days of knock-down before the calcium assay
Challenge: thapsigargin (SERCA pump blocker) to empty calcium stores; entry signal taken 4 min after adding it
Detection: 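Per-well fluo-4 fluorescence in two replicates, unnormalised, measured in resting cells and 4 min after store depletion by the SERCA blocker thapsigargin; ratio of the two present in few wells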
Direction: calcium entry signal: higher = stronger calcium signal after store depletion; resting calcium signal: higher = higher resting calcium signal
Active means: 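Called when the plate z-score of the entry-to-rest ratio, mean of duplicates, falls below −3; wells with low overall dye signal (Fmax z below −2) or more than five off-targets excluded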
Calls: active = strongly reduced calcium entry; inactive = no strong reduction

no.	gene	amplicon	calcium entry signal, replicate 1 (fluorescence units)	calcium entry signal, replicate 2 (fluorescence units)	resting calcium signal, replicate 1 (fluorescence units)	resting calcium signal, replicate 2 (fluorescence units)
1	wa-cup (GeneID 40892)	DRSC12511	2.50e7	2.26e7	1.30e7	1.09e7
2	Iru (GeneID 41080)	DRSC14457	3.58e7	3.64e7	1.59e7	1.72e7
3	Oct-TyrR (GeneID 42452)	DRSC11883	3.08e7	5.69e7	1.53e7	2.53e7
4	Agxt (GeneID 31587)	DRSC18718	3.60e7	3.34e7	1.74e7	1.57e7
5	CG15449 (GeneID 33079)	DRSC20521	4.06e7	4.24e7	2.04e7	1.89e7
6	CG14852 (GeneID 41765)	DRSC14976	3.20e7	5.81e7	1.66e7	6.86e7
7	Idgf6 (GeneID 36868)	DRSC07360	3.96e7	4.51e7	1.81e7	2.12e7
8	CG43163 (GeneID 38966)	DRSC10748	2.67e7	4.54e7	1.33e7	1.93e7
9	obst-E (GeneID 33806)	DRSC02128	4.30e7		2.02e7	
10	CG14883 (GeneID 41997)	DRSC15007	3.11e7	6.05e7	1.67e7	6.74e7
11	CG13561 (GeneID 37765)	DRSC04199	3.79e7	3.78e7	1.95e7	1.80e7
12	CG32590 (GeneID 318103)	DRSC19594	4.12e7	3.42e7	2.11e7	1.50e7
13	Cdc50 (GeneID 32615)	DRSC20224	2.18e7	2.64e7	1.20e7	1.23e7
14	CG4593 (GeneID 31649)	DRSC18374	3.15e7	3.57e7	1.66e7	1.84e7
15	CG42542 (GeneID 8674000)	DRSC15549	3.71e7	4.88e7	1.61e7	2.16e7
16	CG42542 (GeneID 8674000)	DRSC22264	2.72e7	4.21e7	1.37e7	1.90e7
17	mEFTs (GeneID 35060)	DRSC02953	5.25e7		2.22e7	
18	CG15909 (GeneID 35572)	DRSC04977	4.09e7	5.23e7	2.07e7	2.27e7
19	CG9837 (GeneID 41057)	DRSC16573	5.69e7	3.72e7	2.63e7	1.84e7
20	l(3)05822 (GeneID 47260)	DRSC16202	5.25e7	3.91e7	2.27e7	1.82e7
21	EbpII (GeneID 326108)	DRSC04637	3.41e7		1.65e7	
22	EbpII (GeneID 326108)	DRSC22484	3.42e7	3.83e7	2.06e7	1.70e7
23	CG1275 (GeneID 38286)	DRSC08294	4.29e7	4.11e7	1.96e7	2.01e7
24	Vang (GeneID 35922)	DRSC07570	3.82e7	3.14e7	1.83e7	1.41e7

Reformatted: results already given.
gene | amplicon | calcium entry signal, replicate 1 (fluorescence units) | calcium entry signal, replicate 2 (fluorescence units) | resting calcium signal, replicate 1 (fluorescence units) | resting calcium signal, replicate 2 (fluorescence units)
CG13561 (GeneID 37765) | DRSC04199 | 3.79e7 | 3.78e7 | 1.95e7 | 1.80e7
CG32590 (GeneID 318103) | DRSC19594 | 4.12e7 | 3.42e7 | 2.11e7 | 1.50e7
